Source: ChEMBL document CHEMBL3988442, “University of Dundee, Small-Polar-MMV Screening Library” (2021).

Chains of the proteins cited; added tags and fusions are not shown. Residues count along the entry.
UniProt P9WFT3, whole entry: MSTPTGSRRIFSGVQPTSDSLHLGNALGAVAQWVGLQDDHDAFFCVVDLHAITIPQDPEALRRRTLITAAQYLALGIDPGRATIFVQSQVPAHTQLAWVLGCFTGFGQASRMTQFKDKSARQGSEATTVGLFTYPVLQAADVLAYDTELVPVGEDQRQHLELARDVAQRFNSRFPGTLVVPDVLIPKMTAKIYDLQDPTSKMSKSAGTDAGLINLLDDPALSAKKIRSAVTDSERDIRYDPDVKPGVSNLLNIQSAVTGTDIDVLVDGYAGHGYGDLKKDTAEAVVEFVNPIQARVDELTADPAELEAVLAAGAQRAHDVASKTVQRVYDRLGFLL
UniProt Q4DA54, 1-478: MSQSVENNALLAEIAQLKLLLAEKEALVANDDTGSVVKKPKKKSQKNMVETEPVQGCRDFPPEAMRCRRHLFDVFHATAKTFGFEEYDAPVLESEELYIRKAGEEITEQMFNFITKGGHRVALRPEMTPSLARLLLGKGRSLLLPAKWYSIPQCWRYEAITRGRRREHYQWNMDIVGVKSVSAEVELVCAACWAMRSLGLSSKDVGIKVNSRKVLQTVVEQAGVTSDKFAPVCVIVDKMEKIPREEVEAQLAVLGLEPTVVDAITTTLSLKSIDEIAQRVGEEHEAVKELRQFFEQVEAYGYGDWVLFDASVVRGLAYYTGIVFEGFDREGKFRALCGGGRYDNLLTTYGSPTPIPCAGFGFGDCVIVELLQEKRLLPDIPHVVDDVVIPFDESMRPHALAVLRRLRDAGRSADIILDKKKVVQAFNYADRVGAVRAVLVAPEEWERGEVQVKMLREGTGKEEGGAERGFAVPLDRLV
UniProt Q8IDJ8, 1-583: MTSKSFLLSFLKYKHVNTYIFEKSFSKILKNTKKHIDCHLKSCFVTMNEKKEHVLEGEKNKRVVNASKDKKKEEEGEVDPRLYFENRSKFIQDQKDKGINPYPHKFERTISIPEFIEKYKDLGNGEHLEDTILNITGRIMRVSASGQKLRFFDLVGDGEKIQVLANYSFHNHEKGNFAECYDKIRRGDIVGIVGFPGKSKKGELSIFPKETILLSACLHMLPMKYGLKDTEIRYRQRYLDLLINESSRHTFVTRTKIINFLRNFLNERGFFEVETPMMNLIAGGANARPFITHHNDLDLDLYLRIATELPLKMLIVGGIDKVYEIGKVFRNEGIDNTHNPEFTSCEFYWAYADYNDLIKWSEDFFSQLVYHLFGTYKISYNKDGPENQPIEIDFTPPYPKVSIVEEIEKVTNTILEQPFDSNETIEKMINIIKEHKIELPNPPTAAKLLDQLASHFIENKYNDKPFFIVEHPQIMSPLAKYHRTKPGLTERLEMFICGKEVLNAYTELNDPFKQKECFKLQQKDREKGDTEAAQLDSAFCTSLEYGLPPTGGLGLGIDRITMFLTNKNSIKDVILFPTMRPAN
UniProt P9WNZ1, whole entry: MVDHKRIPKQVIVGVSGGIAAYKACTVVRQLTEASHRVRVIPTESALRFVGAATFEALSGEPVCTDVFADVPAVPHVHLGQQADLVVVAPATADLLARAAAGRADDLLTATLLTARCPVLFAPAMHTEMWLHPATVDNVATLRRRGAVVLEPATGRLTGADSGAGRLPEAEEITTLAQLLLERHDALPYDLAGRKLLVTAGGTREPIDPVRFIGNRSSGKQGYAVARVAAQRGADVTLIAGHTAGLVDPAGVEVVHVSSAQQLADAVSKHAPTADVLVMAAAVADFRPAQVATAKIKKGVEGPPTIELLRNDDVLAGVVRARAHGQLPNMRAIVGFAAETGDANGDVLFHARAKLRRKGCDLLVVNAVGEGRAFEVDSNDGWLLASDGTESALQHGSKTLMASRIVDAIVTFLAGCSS
UniProt I6X8D2, whole entry: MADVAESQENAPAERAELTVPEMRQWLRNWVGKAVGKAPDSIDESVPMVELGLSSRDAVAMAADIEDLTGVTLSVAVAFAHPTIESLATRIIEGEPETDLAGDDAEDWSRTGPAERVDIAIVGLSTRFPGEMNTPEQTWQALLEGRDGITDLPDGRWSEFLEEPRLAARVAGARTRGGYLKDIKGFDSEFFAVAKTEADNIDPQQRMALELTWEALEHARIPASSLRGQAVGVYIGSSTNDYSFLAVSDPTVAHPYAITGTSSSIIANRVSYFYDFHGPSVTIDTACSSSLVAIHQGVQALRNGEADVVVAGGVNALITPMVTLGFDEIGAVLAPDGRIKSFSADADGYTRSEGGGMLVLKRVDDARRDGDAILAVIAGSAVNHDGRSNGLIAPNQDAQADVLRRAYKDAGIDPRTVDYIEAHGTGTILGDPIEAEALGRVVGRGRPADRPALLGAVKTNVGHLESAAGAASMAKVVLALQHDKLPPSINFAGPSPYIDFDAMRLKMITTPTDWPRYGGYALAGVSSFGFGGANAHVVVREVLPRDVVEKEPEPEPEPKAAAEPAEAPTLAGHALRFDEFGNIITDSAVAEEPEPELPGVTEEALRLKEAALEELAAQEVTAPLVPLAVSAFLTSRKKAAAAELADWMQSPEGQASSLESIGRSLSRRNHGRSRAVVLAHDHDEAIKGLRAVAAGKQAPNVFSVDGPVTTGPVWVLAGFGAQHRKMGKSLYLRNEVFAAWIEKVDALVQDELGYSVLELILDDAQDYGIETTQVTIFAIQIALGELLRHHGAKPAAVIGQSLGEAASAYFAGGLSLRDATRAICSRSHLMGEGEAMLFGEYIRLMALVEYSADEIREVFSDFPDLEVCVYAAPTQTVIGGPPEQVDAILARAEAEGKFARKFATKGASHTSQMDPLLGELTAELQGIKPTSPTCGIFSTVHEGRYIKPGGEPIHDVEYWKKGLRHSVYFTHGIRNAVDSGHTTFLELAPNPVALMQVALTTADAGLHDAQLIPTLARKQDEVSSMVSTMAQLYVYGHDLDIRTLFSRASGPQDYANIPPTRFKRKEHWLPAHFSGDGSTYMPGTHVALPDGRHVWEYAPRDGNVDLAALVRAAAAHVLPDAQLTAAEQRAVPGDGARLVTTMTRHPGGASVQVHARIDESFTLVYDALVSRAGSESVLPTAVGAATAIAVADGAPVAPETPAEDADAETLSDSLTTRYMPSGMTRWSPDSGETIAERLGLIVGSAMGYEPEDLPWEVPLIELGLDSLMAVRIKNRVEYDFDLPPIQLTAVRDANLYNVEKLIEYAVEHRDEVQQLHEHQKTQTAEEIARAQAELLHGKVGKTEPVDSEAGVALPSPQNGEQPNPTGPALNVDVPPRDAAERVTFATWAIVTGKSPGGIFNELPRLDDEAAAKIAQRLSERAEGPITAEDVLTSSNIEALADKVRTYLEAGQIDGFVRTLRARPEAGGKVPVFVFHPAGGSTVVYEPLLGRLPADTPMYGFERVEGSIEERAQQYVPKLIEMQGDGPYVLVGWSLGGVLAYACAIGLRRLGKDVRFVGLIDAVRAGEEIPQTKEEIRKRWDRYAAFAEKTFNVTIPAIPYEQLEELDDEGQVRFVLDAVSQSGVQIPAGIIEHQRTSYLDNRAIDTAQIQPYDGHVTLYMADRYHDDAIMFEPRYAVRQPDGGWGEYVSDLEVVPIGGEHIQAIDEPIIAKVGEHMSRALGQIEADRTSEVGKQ

A: 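Tryptophan-tRNA ligase, Mycobacterium tuberculosis (UniProt P9WFT3). Enzyme assay of tryptophanyl-tRNA synthetase; the read-out is not stated. Tested at 10 µM. Higher most likely means stronger inhibition; the record gives no direction and few retests gave an IC50. Size under these conditions: about 65,000 compounds, about 64 of them at 50% or above in at least one test.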
B: 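Enzyme assay of histidyl-tRNA synthetase; the read-out is not stated. Target: Histidine-tRNA ligase, Trypanosoma cruzi CL Brener (UniProt Q4DA54). Tested at 30 µM. The record gives no direction; compounds that gave an IC50 in retests scored well above the rest, so higher reads as stronger inhibition. About 69,000 compounds were tested under these conditions; 0.045% (about 31) showed 50% or more at least once.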
C: 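Lysine-tRNA ligase, Plasmodium falciparum 3D7 (UniProt Q8IDJ8). Enzyme assay of the cytosolic lysyl-tRNA synthetase in 384-well plates, read by luminescence. Compounds at 30 µM. Direction is inferred from only a few compounds that gave an IC50; most scored high, so higher reads as stronger inhibition. Size under these conditions: about 69,000 compounds, about 49 of them at 50% or above in at least one test.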
D: 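Coenzyme A biosynthesis protein CoaBC, Mycobacterium tuberculosis (UniProt P9WNZ1). Enzyme assay of CoaBC with a phosphate dye (Biomol Green) read at 650 nm. Compounds at 30 µM. Direction is inferred from only a few compounds that gave an IC50; most scored high, so higher reads as stronger inhibition. Most strong results did not repeat in a second test. Size under these conditions: about 67,000 compounds, about 40 of them at 50% or above in at least one test.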
E: 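Polyketide synthase Pks13, Mycobacterium tuberculosis (UniProt I6X8D2). Enzyme assay of the thioesterase domain of polyketide synthase 13; the read-out is not stated. Compounds at 30 µM. The record gives no direction; the compounds picked for IC50 retests had high values, so higher reads as stronger inhibition. Size under these conditions: about 67,000 compounds, about 300 of them at 50% or above in at least one test.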
F: 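Cell assay of Leishmania donovani living inside macrophages; the read-out is not stated. Compounds at 30 µM. Higher reads as stronger inhibition (inferred: compounds with an IC50 in retests scored well above the rest). Of about 69,000 compounds tested this way, about 1,000 (1.5%) reached 50% or more in at least one test.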

The filed quantity is “Percent Effect” (%). How 0% and 100% were set is not recorded. Most values in the screen are low, and negative values occur. The compounds are a random part of those screened. Two or more numbers in one place are separate tests of the same structure; such repeats can differ widely.

compound: NCCSc1nccc(-c2cnc(C3CC3)nc2-c2ccco2)n1
B: 10.17
C: -0.692
D: -2.289
E: -67.76
F: 4.323 & 23.07

compound: COCCN1CCCC(O)(CN2CCCN(c3ncccn3)CC2)C1=O (stereo not drawn)
A: 3.888
B: 7.143
C: 8.267
D: 1.19
E: 6.936
F: -2.411

compound: COCCCC1CCCCN1S(=O)(=O)c1cccc(C#N)c1 (stereo not drawn)
A: 8.422
B: 9.045
C: 2.214
D: 8.239
E: -0.8022
F: 13.47

compound: CN1CCN(C(=O)c2cnn(-c3ccccc3Cl)c2)CC1
A: 1.751
B: 1.433
C: -2.176
D: 5.342
F: 19.26

compound: Cc1ccccc1C(=O)NC1CCN(Cc2ncc(C(C)(C)C)o2)CC1
A: -4.054
B: 5.028
C: -1.02
D: 0.4032
E: -24.77
F: -7.006

compound: CC(C)c1ccc(CNC(C)c2ccc(S(=O)(=O)N(C)C)cc2)cc1 (stereo not drawn)
A: -2.388
B: 3.158
C: 2.66
D: -3.984
E: -5.386
F: 28.6

compound: N#Cc1ccc(N2CCN(c3ncccn3)CC2)c(C(F)(F)F)c1
A: -9.533
B: 5.882
C: 4.649
D: -3.089
E: 5.469
F: -8.003

compound: CC1CCCN1Cc1cccc(C(=O)Nc2ccc3c(c2)CCC3=O)c1 (stereo not drawn)
A: 5.121
B: 7.303
C: 1.728
D: -4.225
E: -11.29
F: -17.87

compound: O=C(O)C(F)(F)F.O=C(O)C(F)(F)F.O=C(O)C(F)(F)F.[H][C@]12CCN(Cc3cccnc3)[C@@]1([H])CC[C@@H](COCCN1CCCC1)O2
F: -9.001

compound: Cc1nc(CN2CCC(C(=O)O)(n3ccc(C(C)C)n3)CC2)co1
A: 4.181
B: 7.035
C: 3.866
D: 12.76
E: -10.74
F: -12.56

compound: CCOC(=O)[C@H]1[C@@H](O)C(=O)N(C)C12CCN(C(=O)CC1CCCC1)CC2
B: 0
C: 1.159
D: 1.35
E: 9.661
F: 11.95

compound: CCOCCC(=O)Nc1ccnn1-c1ccc(Cl)cc1
A: 2.808
B: 6.466
C: 4.999
D: -0.3802
E: -26.45
F: 0.3355

compound: CCCN(CCC)C(=O)c1cc(CN2CCC(O)CC2)on1
A: -4.326
B: 0.5236
C: 5.101
D: -1.44
E: -24.25
F: 36.24

compound: CN(C)C(=O)N1CCC(c2nc3ccc(-c4ccccc4)cn3n2)CC1
B: 0.5587
C: 0.5146
D: 5.455
E: -0.3272
F: 34.31

compound: Cc1c(C(=O)N2CCN(c3ncccn3)CC2)n(C)c2ccc(Cl)cc12
A: 0.6159
B: 7.216
C: 1.112
D: -4.245
E: 19.42
F: 15.17

compound: CS(=O)(=O)N1CCN(c2cnnc(N3CCCC3)c2)CC1
A: -2.349
B: 4.848
C: -0.2841
D: 1.788
E: -10.71
F: -1.806

compound: CCOCC1c2c(ncn2C(C)C)CCN1C(=O)C1CC1 (stereo not drawn)
A: -1.622
B: -1.604
C: 0.2728
D: 6.25
E: -20.61
F: 23.55

compound: Cc1nc(N(C)C)nc(C)c1NC(=O)c1ccccc1F
A: -1.188
B: 4.327
C: 2.364
D: 1.908
E: 0.1306
F: 1.931

Some entries from above, unchanged:

* Cc1ccccc1C(=O)NC1CCN(Cc2ncc(C(C)(C)C)o2)CC1 : A: -4.054%; B: 5.028%; C: -1.02%; D: 0.4032%; E: -24.77%; F: -7.006%
* CC(C)c1ccc(CNC(C)c2ccc(S(=O)(=O)N(C)C)cc2)cc1 (stereo not drawn) : A: -2.388%; B: 3.158%; C: 2.66%; D: -3.984%; E: -5.386%; F: 28.6%